Paper PMC2993924
No constants are given. Whether binding was seen depends on the method and setting. In cells and extracts the contact can be indirect. Some binding calls cover weakened binding; strength is not graded here.

Amino acid sequences for entries named in this document (tags omitted).
UniProt Q03135: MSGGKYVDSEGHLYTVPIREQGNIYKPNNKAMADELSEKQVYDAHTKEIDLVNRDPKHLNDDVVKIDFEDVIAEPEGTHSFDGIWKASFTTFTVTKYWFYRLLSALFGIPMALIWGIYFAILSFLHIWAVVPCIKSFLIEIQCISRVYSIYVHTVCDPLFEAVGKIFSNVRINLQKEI
UniProt Q92731: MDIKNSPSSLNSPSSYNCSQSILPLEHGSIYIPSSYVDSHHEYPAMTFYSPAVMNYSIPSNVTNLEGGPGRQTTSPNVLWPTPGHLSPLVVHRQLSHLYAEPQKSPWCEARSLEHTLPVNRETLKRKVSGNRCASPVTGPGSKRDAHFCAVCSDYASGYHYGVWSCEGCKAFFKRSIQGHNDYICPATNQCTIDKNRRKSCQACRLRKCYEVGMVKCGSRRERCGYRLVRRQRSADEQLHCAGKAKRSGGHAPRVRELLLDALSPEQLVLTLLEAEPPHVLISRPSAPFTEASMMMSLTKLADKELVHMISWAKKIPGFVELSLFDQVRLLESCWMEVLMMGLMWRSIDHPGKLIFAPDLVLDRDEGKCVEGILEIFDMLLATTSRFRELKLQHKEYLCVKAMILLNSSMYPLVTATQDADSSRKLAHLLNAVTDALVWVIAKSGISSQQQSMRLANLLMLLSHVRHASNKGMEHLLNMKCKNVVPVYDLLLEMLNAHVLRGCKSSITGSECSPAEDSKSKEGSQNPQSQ

target: EGF receptor (EGFR), membrane associated (human (endogenous in REN)) (UniProt P00533); assay: co-IP; intact REN cells (wild type, mock- or ERβ-transfected; untreated or 5 ng/ml EGF for 1 or 5 min) incubated with anti-EGFR antibodies 1 h at 4°C, then lysed in 1% NP-40, 150 mM NaCl, 50 mM Tris-HCl pH 8; 2 mg extract with protein A-Sepharose; blots for EGFR, ERβ and caveolin 1

Substance | binding
caveolin 1 (from UniProt Q03135 1-178) | binds
estrogen receptor beta (ERβ), endogenous in REN cells (from UniProt Q92731 1-530) | binds
human wild type ERβ expressed from the pCXN2 plasmid (from UniProt Q92731 1-530) | binds
